From patent US11492369 (dated 2022)

Test: general procedure: Fmoc solid-phase peptide synthesis; Trt(2-Cl) (2-chlorotrityl) resin; DIC/HOOBt; DIC/HOAt
Conditions: whole synthesis; for crude purity (method not given): scale 100 mg resin; for crude LC-MS purity: LCMS (UV area), scale 1.0 g resin

## Fmoc-Ser(tBu)-MePhe-MeVal-Asp-pip
LC UV area
  crude purity (method not given): 97.91% (LC UVarea)
Run 1
  crude LC-MS purity: 99.92%
Run 2
  crude LC-MS purity: 99.93%
UV area
  crude purity (method not given): 89% (UV area)
